Test results taken from patent publication US9695181B2, “Hydroximic acid derivatives and medical applications therof” (Double Rider Medicine Co., LTD., priority 2013, dated 2017).
At least one compound was matched to its structure with a doubt left.

The chains behind the UniProt entries cited, without tags or fusion partners. Residues count along the entry.
UniProt P35968, 20-1356, species assumed: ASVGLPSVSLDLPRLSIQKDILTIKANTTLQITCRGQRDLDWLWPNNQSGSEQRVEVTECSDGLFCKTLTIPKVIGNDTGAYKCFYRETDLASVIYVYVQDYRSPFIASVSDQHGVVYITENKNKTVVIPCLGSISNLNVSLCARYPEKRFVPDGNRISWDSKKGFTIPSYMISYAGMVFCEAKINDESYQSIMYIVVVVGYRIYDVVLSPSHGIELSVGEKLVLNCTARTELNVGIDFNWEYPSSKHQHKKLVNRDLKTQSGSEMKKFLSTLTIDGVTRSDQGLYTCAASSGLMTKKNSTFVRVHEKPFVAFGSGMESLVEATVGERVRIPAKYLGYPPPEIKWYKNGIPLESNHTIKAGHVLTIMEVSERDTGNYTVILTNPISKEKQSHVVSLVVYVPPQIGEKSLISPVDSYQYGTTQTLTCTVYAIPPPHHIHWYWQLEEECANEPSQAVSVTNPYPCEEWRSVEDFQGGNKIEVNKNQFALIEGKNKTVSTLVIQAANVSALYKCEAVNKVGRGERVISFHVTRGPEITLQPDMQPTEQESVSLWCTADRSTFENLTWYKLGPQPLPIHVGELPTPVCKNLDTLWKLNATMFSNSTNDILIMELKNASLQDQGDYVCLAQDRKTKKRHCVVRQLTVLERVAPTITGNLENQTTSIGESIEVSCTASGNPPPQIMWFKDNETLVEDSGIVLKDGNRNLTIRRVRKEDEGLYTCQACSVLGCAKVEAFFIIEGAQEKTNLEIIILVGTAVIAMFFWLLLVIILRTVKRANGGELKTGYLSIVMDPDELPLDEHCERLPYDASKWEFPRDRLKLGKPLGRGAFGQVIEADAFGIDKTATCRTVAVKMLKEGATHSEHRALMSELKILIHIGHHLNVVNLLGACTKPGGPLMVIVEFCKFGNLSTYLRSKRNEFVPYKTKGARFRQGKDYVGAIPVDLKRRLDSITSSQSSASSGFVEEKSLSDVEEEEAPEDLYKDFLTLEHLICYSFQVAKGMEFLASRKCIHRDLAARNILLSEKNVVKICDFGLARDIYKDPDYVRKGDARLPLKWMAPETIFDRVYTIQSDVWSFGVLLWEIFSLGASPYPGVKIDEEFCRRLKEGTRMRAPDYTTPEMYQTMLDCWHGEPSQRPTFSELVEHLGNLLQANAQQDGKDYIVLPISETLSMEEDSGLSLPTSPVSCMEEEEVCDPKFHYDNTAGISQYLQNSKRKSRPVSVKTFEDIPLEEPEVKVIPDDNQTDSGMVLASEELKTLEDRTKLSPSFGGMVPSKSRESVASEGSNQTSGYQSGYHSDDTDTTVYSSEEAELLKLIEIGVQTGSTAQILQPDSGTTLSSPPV
UniProt Q13547, whole entry: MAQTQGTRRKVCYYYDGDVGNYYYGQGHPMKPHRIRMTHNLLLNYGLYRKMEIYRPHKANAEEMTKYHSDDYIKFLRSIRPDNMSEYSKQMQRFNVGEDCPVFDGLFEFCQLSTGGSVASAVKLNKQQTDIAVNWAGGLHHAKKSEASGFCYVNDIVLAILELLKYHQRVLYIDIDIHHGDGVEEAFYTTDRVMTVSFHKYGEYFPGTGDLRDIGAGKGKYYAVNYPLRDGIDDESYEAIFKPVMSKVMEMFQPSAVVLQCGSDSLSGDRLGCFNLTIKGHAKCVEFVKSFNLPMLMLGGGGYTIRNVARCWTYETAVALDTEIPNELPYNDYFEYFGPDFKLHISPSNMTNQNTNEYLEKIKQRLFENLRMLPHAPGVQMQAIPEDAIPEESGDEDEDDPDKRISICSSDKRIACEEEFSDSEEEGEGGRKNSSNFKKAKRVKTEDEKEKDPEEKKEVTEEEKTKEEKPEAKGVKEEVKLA

Tests used:
[1] = target: KDR (VEGFR2) protein tyrosine kinase (Homo sapiens (Human), UniProt P35968); experiment: Inhibition of KDR (VEGFR2) protein tyrosine kinase substrate phosphorylation, ELISA; format: biochemical; conditions: at the molecular level
Procedure: Kinase reaction substrate Poly(Glu, Tyr)4:1 (SIGMA);
(1) Kinase reaction substrate Poly(Glu,Tyr)4:1 was diluted to 20 µg/ml with potassium ion-free PBS, and enzyme labeled plate was coated by the substrate, reacted at 37° C. for 12-16 h, and then the liquid in holes was removed.
(2) Enzyme labeled plate was washed with T-PBS for 10 min three times.
(3) Enzyme labeled plate was dried at 37° C. in a dryer.
(4) The tested samples were added into holes of the coated enzyme labeled plate:
The tested samples was firstly formulated to be a 10^−2 M stock solution in DMSO, subpackaged and storaged at −20° C., and then diluted to required concentration with reaction buffer before use, added into the experiment holes to reach corresponding final concentration in a 100 μL reaction system. Meanwhile, positive control holes were created, and added with positive control compound Su11248.
(5) Adding ATP and the tested tyrosine kinase:
ATP solution (final concentration 5 μM) diluted with reaction buffer was added, and then tested tyrosine kinase diluted with reaction buffer was added. Total volume of the reaction system was 100 μL. Meanwhile, negative control holes and enzyme-free control holes were created. […]
(10) 2M H2SO4 50 μL was added to terminate the reaction, and value A490 was measured by tunable wavelength type micro plate (Molecular Devices SPECTRAMAX190). […]

Human HDAC1 = Human HDAC1 (Homo sapiens (Human), UniProt Q13547); experiment: Inhibition of catalyzing activity of histone deacetylase 1 (HDAC1), fluorescence detection; format: biochemical; conditions: at the molecular level
Procedure: Human HDAC1, obtained by utilizing baculovirus expression system;
Substrate, Ac-Lys-Tyr-Lys (Ac)-AMC;
Enzymatic activity was tested in 96-well or 384-well flat microwell plate by fluorescence detection and taking Ac-Lys-Tyr-Lys(Ac)-AMC as substrate. The tested samples was firstly formulated to be a 10^−2 M stock solution in DMSO, subpackaged and storaged at −20° C., and then diluted to required concentration with reaction buffer before use. […] The initial reaction speed was calculated by detecting the change of fluorescence signal with time.

Row | SMILES | inhibition of the activity of VEGFR2 tyrosine kinase, conclusion in words [1] | inhibition of the activity of HDAC1, conclusion in words (Human HDAC1)
1 | Cc1cccc(NC(=O)Nc2ccc(-c3nn(CCCCCCCC(=O)NO)c4ncnc(N)c34)cc2)c1 [Compound IIa] | significantly inhibit | significantly inhibit
2 | Cc1ccc(F)c(NC(=O)Nc2ccc(-c3nn(CCCCCCCC(=O)NO)c4ncnc(N)c34)cc2)c1 [Compound IIb] | significantly inhibit | significantly inhibit
